The list is a part of this screen's results and no random one: it gathers tests that were run many times, whatever their T/C, doses with no T/C, and many T/C values between a quarter and a half above the control. Further doses and runs are listed elsewhere. T/C gives the treated animals as a percentage of the vehicle group. Some entries give survivors of the animals treated and no T/C: the source holds a T/C of zero for them, seemingly a mark for toxic or unscored doses. Some doses without a T/C left all or most animals alive at the check, yet need not have been tolerated: the source hardly ever lists a survival T/C far under the control, and the zero likely stands for such cases as well. Counts of survivors are from the toxicity check (mostly the fifth day) where no day follows; animals may have died later. Schedule codes are those of the source, read here as Q, the interval in days (D) or hours (H), X, the number of doses. For survival time, the PubChem record calls one and a half times the control and up active, and a quarter to a half above the control has no call in these data; cut-offs in other NCI protocols can differ. Some doses were run more than once; the results are listed from low to high.

Results on 27 compounds are retold here after PubChem BioAssay AID330 (DTP/NCI, 2004).

The subject of the experiment is P388 leukemia ip, CD2F1 mice, survival T/C. Briefly: NCI In Vivo Anticancer Drug Screen. Data for tumor model P388 Leukemia (intraperitoneal) in CD2F1 (CDF1) mice. The note with it: T/C endpoint: median survival time, higher T/C = longer survival.
Where [1] appears, read: dose: 30.0 mg/kg/injection, schedule: Q01DX005 (ip), vehicle: saline.
Setting [2] is: dose: 60.0 mg/kg/injection, schedule: Q01DX005 (ip), vehicle: saline.
Where [3] appears, read: dose: 120.0 mg/kg/injection, schedule: Q01DX005 (ip), vehicle: saline.
Where [4] appears, read: dose: 240.0 mg/kg/injection, schedule: Q01DX005 (ip), vehicle: saline.
Where [5] appears, read: dose: 100.0 mg/kg/injection, schedule: Q01DX005 (ip), vehicle: saline with Tween-80.
Setting [6] is: dose: 200.0 mg/kg/injection, schedule: Q01DX005 (ip), vehicle: saline with Tween-80.
[7] abbreviates: dose: 100.0 mg/kg/injection, schedule: Q01DX009 (ip), vehicle: saline with Tween-80.
The mark [8] stands for this setting: dose: 200.0 mg/kg/injection, schedule: Q01DX009 (ip), vehicle: saline with Tween-80.
The mark [9] stands for this setting: dose: 200.0 mg/kg/injection, schedule: Q01DX005 (ip), vehicle: Klucel (hydroxypropylcellulose) (HPC).
Setting [10] is: dose: 200.0 mg/kg/injection, schedule: Q01DX009 (ip), vehicle: saline.
Setting [11] is: dose: 400.0 mg/kg/injection, schedule: Q04DX002 (ip), vehicle: saline with Tween-80.

With `COc1cc(OC)c(C(=O)C(CN(C)C)CN(C)C)cc1OC`, the survivor count reads like this: (dose: 15.0 mg/kg/injection, schedule: Q01DX005 (ip), vehicle: other) 3 of 6; (dose: 30.0 mg/kg/injection, schedule: Q01DX005 (ip), vehicle: other) 0 of 6; under setting [1], 0 of 6; (dose: 60.0 mg/kg/injection, schedule: Q01DX005 (ip), vehicle: other) 0 of 6; under setting [2], 0 of 6; (dose: 120.0 mg/kg/injection, schedule: Q01DX005 (ip), vehicle: other) 0 of 6. The survivor count runs as follows: under setting [3], 0 of 6; (dose: 240.0 mg/kg/injection, schedule: Q01DX005 (ip), vehicle: other) 0 of 6; under setting [4], 0 of 6. Further, the T/C under setting [2] is 139 % of control.
On to `CSc1nccc(=O)n1-c1ccccc1`, for which, where the note is “dose: 400.0 mg/kg/injection, schedule: Q04DX003 (ip), vehicle: Klucel (hydroxypropylcellulose) (HPC)”, the survivor count is on record as 2 of 6.
Turning to `COc1ccc(C(=O)C(CN2CCOCC2)CN2CCOCC2)cc1`, the survivor count under setting [4] is recorded as 0 of 6.
For the compound `c1ccc([Te][Te]c2ccccc2)cc1`, the T/C (dose: 25.0 mg/kg/injection, schedule: Q01DX005 (ip), vehicle: saline with Tween-80) was 138 % of control; the T/C (dose: 50.0 mg/kg/injection, schedule: Q01DX005 (ip), vehicle: saline with Tween-80) was 130 % of control; the T/C under setting [5] was 135 % of control. Also, the survivor count is, setting by setting: under setting [5], 3 of 5; under setting [6], 0 of 5.
Turning to `COc1ccc(NCCc2ccc(-n3ncc(C(=O)NN)c3N)nn2)cc1OC`, the survivor count (dose: 300.0 mg/kg/injection, schedule: Q01DX005 (ip), vehicle: other) is reported as 1 of 5.
On to `CC1(C(Cl)(Cl)Cl)C=C(Cl)C(=O)C(Cl)=C1`, for which the survivor count (dose: 100.0 mg/kg/injection, schedule: Q01DX005 (ip), vehicle: Klucel (hydroxypropylcellulose) (HPC)) is given as 5 of 5.
On to `O=S(=O)(c1ccc(Cl)c(Cl)c1)N(c1cccc(C(F)(F)F)c1)S(=O)(=O)c1ccc(Cl)c(Cl)c1`, for which the survivor count (dose: 50.0 mg/kg/injection, schedule: Q01DX009 (ip), vehicle: saline with Tween-80) was 6 of 6; the survivor count under setting [7] is given as 6 of 6; the survivor count under setting [8] is 6 of 6.
Consider `CC(C)NC(=O)OCc1ncn(-c2ccccc2)c1COC(=O)NC(C)C`, for which the survivor count is, setting by setting: under setting [9], 6 of 6; (dose: 400.0 mg/kg/injection, schedule: Q01DX005 (ip), vehicle: Klucel (hydroxypropylcellulose) (HPC)) 6 of 6.
In the case of `N=C(N)SCc1ccccc1[N+](=O)[O-]`, the survivor count under setting [7] is reported as 3 of 6; the survivor count under setting [8] was 0 of 6; the survivor count (dose: 400.0 mg/kg/injection, schedule: Q01DX009 (ip), vehicle: saline with Tween-80) was 0 of 6.
As to `CC1(O)Oc2c(cc(C(C)(C)C)cc2C(C)(C)C)C1=O` (configuration not stated), the survivor count by setting is: (dose: 50.0 mg/kg/injection, schedule: Q01DX009 (ip), vehicle: saline) 6 of 6; (dose: 100.0 mg/kg/injection, schedule: Q01DX009 (ip), vehicle: saline) 6 of 6; under setting [10], 6 of 6.
As to `S=C(Nc1cc(Cl)c(Cl)cc1Cl)SCc1ccccc1`, under “dose: 200.0 mg/kg/injection, schedule: Q01DX009 (ip), vehicle: suspension in saline”, the survivor count is on record as 1 of 6.
Take `CSc1nc(Cl)c(Cl)c(C(F)(F)F)n1`: the survivor count by setting is: under setting [5], 5 of 6; under setting [6], 0 of 6.
For the compound `O=c1ccc2nccc3c4cc(O)ccc4n1c23`, the survivor count is given as 3 of 4 (dose: 0.44 mg/kg/injection, schedule: Q01DX009 (ip), vehicle: saline with Tween-80); 4 of 4 (dose: 0.88 mg/kg/injection, schedule: Q01DX009 (ip), vehicle: saline with Tween-80); 4 of 4 (dose: 3.5 mg/kg/injection, schedule: Q01DX009 (ip), vehicle: saline with Tween-80).
`CCCCN(CCCC)CCOc1c[nH]c(=O)[nH]c1=O`: the survivor count under setting [9] was 0 of 5.
Regarding `O=C1C(O)=C(O)C(=O)c2ccccc21`, the survivor count is, setting by setting: (dose: 100.0 mg/kg/injection, schedule: Q01DX009 (ip), vehicle: Klucel (hydroxypropylcellulose) (HPC)) 0 of 6; (dose: 200.0 mg/kg/injection, schedule: Q01DX009 (ip), vehicle: Klucel (hydroxypropylcellulose) (HPC)) 0 of 6.
As for `Cc1nn(-c2ccccc2)c(SC(C)(C)C)c1C=NCCN=Cc1c(C)nn(-c2ccccc2)c1SC(C)(C)C`, the survivor count (dose: 30.0 mg/kg/injection, schedule: Q01DX005 (ip), vehicle: Klucel (hydroxypropylcellulose) (HPC)) is recorded as 6 of 6; the survivor count (dose: 60.0 mg/kg/injection, schedule: Q01DX005 (ip), vehicle: Klucel (hydroxypropylcellulose) (HPC)) is recorded as 5 of 6; the survivor count (dose: 120.0 mg/kg/injection, schedule: Q01DX005 (ip), vehicle: Klucel (hydroxypropylcellulose) (HPC)) is reported as 2 of 6.
As for `CCN(C(=S)NNC(=S)N/N=C(\C)c1ccccn1)c1ccccc1`, the survivor count under setting [6] is 6 of 6.
In the case of `COC(=O)c1noc2c1CSc1ccccc1-2`, under setting [11], the survivor count is reported as 6 of 6.
As to `O=C(CC(=O)CC(O)(C(F)(F)F)C(F)(F)F)CC(O)(C(F)(F)F)C(F)(F)F`, the survivor count (dose: 5.0 mg/kg/injection, schedule: Q04DX003 (ip), vehicle: saline) is recorded as 0 of 6.
For `CCOC(=O)N(C)N=NC`, the T/C runs as follows: (dose: 15.0 mg/kg/injection, schedule: Q01DX005 (ip), vehicle: saline) 133 % of control; under setting [1], 126 % of control. The survivor count was 6 of 6 under setting [2], 0 of 6 under setting [3] and 0 of 6 under setting [4].
As for `c1ccc(-c2n[se]c(-c3ccccc3)n2)cc1`, the survivor count (dose: 100.0 mg/kg/injection, schedule: Q04DX002 (ip), vehicle: saline with Tween-80) is given as 6 of 6; the survivor count (dose: 200.0 mg/kg/injection, schedule: Q04DX002 (ip), vehicle: saline with Tween-80) is on record as 3 of 6; the survivor count under setting [11] is recorded as 0 of 6.
With `Nc1ccc2ccc3ccc(N)nc3c2n1`, under “dose: 240.0 mg/kg/injection, schedule: Q01DX005 (ip), vehicle: saline with Tween-80”, the survivor count was 0 of 6.
As for `C(=C\c1cc2cc(C3=NCCN3)ccc2s1)/c1ccc(C2=NCCN2)cc1`, the T/C is 125 % of control (dose: 6.25 mg/kg/injection, schedule: Q04DX003 (ip), vehicle: saline); 137 and 142 % of control (dose: 12.5 mg/kg/injection, schedule: Q04DX003 (ip), vehicle: saline); 127 and 137 % of control (dose: 25.0 mg/kg/injection, schedule: Q04DX003 (ip), vehicle: saline); 140 % of control (dose: 50.0 mg/kg/injection, schedule: Q04DX003 (ip), vehicle: saline). Also, the survivor count (dose: 100.0 mg/kg/injection, schedule: Q04DX003 (ip), vehicle: saline) is 5 of 6; the survivor count (dose: 200.0 mg/kg/injection, schedule: Q04DX003 (ip), vehicle: saline) is 0 of 6; the survivor count (dose: 400.0 mg/kg/injection, schedule: Q04DX003 (ip), vehicle: saline) is reported as 0 of 6.
`O=C(O)CN(CCN(CC(=O)O)CC(=O)O)CCN(CC(=O)O)CC(=O)O`: the survivor count (dose: 400.0 mg/kg/injection, schedule: Q01DX009 (ip), vehicle: Klucel (hydroxypropylcellulose) (HPC)) is given as 0 of 6.
Turning to `N#Cc1cc(Br)ccc1[N+](=O)[O-]`, under “dose: 25.0 mg/kg/injection, schedule: Q01DX009 (ip), vehicle: saline”, the survivor count is 6 of 6.
Turning to `CC(=O)N(C)c1ccc(NC(=O)Nc2cc(C)ccc2C)cc1`, under setting [10], the survivor count was 6 of 6.
Regarding `CCCCCCC(=O)CC(SCCN)c1ccccc1Cl` (configuration not stated), the survivor count under setting [2] was 1 of 6, the survivor count under setting [3] is given as 0 of 6 and the survivor count under setting [4] is on record as 0 of 6.
